The target of this test is Fatty acid synthase (human (endogenous in HepG2 and SMMC7721)) (UniProt P49327). As to the kind of experiment: co-IP; 1 mg whole cell lysate of HepG2 or SMMC7721 cells with 2 µg FASN antibody overnight at 4 °C, Protein A/G agarose beads; western blot; normal rabbit IgG and beads as negative controls.

The chains behind the UniProt entries cited, without tags or fusion partners.
UniProt P49327: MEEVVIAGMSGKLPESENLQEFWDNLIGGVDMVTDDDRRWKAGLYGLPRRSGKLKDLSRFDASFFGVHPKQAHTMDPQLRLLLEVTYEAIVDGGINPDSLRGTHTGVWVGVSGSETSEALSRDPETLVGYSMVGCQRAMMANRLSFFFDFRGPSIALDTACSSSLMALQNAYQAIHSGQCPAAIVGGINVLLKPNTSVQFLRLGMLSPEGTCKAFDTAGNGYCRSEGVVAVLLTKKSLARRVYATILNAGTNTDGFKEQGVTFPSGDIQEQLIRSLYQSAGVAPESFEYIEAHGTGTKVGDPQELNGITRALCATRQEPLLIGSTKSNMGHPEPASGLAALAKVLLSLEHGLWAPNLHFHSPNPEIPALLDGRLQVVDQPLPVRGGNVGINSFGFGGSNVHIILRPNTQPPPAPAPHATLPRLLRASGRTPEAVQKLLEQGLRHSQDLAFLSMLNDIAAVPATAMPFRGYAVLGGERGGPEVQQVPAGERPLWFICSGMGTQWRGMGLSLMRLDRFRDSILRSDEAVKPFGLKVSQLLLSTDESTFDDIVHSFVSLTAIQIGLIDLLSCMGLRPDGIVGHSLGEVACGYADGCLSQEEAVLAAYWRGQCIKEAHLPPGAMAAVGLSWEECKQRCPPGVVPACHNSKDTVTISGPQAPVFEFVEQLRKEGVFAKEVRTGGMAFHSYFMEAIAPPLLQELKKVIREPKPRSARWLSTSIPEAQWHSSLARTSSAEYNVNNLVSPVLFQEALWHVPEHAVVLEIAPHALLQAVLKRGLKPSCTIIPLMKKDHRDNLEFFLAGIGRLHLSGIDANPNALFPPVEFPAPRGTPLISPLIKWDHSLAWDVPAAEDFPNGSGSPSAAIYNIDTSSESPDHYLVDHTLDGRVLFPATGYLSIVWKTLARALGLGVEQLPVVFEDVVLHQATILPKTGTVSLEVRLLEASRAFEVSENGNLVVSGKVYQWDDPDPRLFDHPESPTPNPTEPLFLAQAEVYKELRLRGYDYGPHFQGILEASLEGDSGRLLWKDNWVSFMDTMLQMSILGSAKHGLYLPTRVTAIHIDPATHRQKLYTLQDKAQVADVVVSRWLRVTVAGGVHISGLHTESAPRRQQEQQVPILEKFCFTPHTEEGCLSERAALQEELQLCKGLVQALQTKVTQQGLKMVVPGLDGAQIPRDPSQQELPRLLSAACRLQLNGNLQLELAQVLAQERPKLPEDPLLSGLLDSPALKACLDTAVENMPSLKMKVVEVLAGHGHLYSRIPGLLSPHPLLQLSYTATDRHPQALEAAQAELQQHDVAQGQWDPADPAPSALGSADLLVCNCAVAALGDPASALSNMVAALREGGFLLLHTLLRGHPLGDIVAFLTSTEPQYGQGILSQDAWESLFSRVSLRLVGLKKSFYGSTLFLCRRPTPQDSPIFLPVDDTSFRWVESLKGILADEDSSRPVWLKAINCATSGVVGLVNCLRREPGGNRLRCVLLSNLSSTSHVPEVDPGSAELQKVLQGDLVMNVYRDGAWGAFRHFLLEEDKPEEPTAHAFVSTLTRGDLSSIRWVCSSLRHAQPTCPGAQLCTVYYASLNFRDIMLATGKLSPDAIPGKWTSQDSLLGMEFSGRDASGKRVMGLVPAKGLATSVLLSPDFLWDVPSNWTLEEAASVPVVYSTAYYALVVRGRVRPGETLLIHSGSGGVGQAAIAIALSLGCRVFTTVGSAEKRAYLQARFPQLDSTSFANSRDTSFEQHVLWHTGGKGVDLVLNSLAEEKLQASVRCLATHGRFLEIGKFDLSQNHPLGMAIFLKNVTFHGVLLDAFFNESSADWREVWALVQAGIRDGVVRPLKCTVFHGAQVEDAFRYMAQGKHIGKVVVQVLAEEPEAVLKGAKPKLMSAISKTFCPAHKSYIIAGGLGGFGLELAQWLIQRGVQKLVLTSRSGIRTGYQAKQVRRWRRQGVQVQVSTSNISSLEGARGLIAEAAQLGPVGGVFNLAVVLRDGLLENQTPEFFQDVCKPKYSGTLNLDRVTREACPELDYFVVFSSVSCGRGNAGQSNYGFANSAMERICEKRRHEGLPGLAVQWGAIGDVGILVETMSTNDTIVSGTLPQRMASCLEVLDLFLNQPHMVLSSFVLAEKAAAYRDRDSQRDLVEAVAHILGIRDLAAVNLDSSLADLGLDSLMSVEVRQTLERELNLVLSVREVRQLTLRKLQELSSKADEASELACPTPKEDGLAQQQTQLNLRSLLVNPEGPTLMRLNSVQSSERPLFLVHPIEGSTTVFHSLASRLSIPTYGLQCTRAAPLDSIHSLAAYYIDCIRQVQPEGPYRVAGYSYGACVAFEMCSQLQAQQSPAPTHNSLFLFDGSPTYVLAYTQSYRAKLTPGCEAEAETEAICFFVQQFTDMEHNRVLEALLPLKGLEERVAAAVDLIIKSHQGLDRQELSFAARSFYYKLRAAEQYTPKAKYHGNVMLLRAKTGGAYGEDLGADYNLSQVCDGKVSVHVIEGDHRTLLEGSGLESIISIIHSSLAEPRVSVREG
UniProt Q01082: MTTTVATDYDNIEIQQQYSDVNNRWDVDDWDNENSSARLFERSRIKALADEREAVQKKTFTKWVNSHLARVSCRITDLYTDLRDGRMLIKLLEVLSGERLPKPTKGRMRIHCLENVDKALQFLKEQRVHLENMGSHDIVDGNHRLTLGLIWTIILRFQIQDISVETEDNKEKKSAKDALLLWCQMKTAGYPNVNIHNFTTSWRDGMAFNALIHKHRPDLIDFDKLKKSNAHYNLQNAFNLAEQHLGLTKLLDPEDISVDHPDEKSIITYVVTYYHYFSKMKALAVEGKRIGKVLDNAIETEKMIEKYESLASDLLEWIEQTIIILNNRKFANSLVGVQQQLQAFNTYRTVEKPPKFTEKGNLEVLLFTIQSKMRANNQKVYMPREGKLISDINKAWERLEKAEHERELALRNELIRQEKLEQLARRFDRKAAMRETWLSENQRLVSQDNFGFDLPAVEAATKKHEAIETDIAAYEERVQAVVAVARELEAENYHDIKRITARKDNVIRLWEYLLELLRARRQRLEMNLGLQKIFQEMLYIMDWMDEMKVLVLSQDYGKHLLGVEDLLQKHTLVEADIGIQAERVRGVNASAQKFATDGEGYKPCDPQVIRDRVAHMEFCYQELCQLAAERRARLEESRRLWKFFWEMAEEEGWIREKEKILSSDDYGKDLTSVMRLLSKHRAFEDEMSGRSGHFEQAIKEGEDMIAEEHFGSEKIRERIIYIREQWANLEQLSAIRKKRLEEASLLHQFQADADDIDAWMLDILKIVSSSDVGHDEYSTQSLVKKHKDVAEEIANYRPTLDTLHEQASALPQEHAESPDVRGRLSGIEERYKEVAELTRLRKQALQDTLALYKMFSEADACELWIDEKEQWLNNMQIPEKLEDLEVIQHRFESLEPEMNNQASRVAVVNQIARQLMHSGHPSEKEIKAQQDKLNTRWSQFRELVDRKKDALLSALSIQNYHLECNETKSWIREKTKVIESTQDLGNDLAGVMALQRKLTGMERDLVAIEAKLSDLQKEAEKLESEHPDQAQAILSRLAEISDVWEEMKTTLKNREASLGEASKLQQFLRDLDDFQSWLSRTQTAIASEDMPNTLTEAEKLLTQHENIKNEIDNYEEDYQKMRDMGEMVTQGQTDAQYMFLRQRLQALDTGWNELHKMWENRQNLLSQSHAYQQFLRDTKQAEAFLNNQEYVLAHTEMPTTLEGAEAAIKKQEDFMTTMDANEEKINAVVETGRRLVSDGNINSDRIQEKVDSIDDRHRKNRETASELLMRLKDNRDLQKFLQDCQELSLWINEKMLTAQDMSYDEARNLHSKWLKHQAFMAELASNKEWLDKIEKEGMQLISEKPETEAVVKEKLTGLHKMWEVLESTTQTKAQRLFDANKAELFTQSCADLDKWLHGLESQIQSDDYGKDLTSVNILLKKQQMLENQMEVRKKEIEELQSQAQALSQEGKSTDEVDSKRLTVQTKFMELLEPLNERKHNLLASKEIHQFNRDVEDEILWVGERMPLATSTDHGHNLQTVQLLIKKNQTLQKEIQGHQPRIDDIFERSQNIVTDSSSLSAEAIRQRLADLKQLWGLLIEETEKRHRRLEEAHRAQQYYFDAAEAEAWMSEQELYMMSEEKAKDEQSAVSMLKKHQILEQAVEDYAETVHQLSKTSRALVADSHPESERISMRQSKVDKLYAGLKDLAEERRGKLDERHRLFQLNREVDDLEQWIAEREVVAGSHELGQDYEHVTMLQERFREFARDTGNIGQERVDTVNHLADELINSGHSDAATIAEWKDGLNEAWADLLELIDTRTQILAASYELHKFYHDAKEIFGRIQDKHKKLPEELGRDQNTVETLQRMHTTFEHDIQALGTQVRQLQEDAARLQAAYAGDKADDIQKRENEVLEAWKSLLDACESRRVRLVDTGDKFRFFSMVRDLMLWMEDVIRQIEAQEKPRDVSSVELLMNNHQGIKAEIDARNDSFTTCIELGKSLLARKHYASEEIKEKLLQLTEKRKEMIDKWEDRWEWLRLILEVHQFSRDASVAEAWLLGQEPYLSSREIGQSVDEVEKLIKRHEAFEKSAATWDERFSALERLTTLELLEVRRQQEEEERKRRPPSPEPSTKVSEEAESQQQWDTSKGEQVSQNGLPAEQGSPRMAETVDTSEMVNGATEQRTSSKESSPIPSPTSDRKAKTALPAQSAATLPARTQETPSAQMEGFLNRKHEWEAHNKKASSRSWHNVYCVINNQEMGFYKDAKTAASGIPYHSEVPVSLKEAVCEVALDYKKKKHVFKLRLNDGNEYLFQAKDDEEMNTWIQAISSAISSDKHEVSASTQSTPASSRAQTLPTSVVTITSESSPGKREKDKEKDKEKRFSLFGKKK

This note sets out measurements from publication PMC7372886.

Results are given in words; binding and its absence hold for the method and conditions named. In cells and extracts the contact can be indirect. Some entries that bind do so weakly or less than the wild type.

As for “Spectrin beta chain, non-erythrocytic 1 (from UniProt Q01082 1-2364)”, the binding entry is “binds”.
